# The campaign covered roughly 320,000 compounds. About 740 (0.23%) were called active. The inconclusive results got no clear call from the source; some entries with a clear call stand among them for comparison. The call rests on the fitted dose curve; in most records, active means well fitted activation curve with a large enough effect; inconclusive means small, poorly fitted or top-dose-only effect; inactive means no such curve, though single readings can be large or run the other way. Where the call is inconclusive, the potency comes from a doubtful curve fit.
# Experiment: qHTS Assay for Small Molecule Inhibitors of Mitochondrial Division or Activators of Mitochondrial Fusion; further: nearly all actives have a fitted effect of over 45% in size
# Details: S. cerevisiae fusion-defective mutant growth rescue, CellTiterGlo 48 h; series mostly up to 46.1 µM
# Outline: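 Growth-rescue viability read-out: after 48 h at the non-permissive 37C in glycerol/ethanol YPEG, yeast mitochondrial fusion mutants are measured by CellTiterGlo luminescence; compounds (23 nl pinned per well) restoring growth score as division inhibitors or fusion activators.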
# Potency means the concentration at half of the fitted maximal effect.
row,Compound,Potency
1,O=C(Nc1ccccc1F)c1ccc(Cn2cc(Br)cn2)cc1,"inconclusive: 6.31 µM [activator, single point]"
2,CC(=O)c1ccc(NC(=O)c2cccc(NC(=O)c3ccccc3)c2)cc1,inactive
3,O=[N+]([O-])c1ccc(-c2ccn[nH]2)o1,"inconclusive: 6.31 µM [activator, partial curve]"
4,CC(=O)NC(=O)COC(=O)c1ccc2ncsc2c1,"inconclusive: 12.6 µM [activator, partial curve]"
5,C/C(=N\NC(=S)NCc1ccccc1)c1ccc2ccccc2c1,"inconclusive: 31.6 µM [activator, single point]"
6,O=C(Nc1ccc2c(c1)CCCN2C(=O)c1cccs1)c1cccc(F)c1,"inconclusive: 3.98 µM [activator, partial curve]"
7,O=C(CSc1nnc2ccccn12)Nc1cccc(-c2nc3ccccc3s2)c1,inactive
8,CCOc1cc(/C=N/NC(=O)c2nn(C)cc2Br)ccc1OCc1ccccc1Cl,active: 3.98 µM
9,[O-][n+]1c2ccccc2[n+]([O-])c2cc(O)ccc21,"inconclusive: 8.91 µM [activator, partial curve]"
10,COc1ccccc1-n1c(C)nc2cc(C(=O)NCC3CCCO3)ccc21 (configuration not stated),"inconclusive: 3.55 µM [activator, single point]"
11,CS(=O)c1nc(-c2ccc(Br)cc2)cc(-c2ccccc2)c1C#N (configuration not stated),"inconclusive: 14.1 µM [activator, single point]"
12,NS(=O)(=O)c1ccc(CCNS(=O)(=O)c2cccc3cccnc23)cc1,"inconclusive: 5.62 µM [activator, single point]"
13,Cc1ccccc1Nc1ncnc2c1cnn2-c1ccccc1,"inconclusive: 12.6 µM [activator, partial curve]"
14,CCOC(=O)c1cc(-c2ccccc2C)n(CC2CC(c3cccc([N+](=O)[O-])c3)=NO2)n1 (configuration not stated),"inconclusive: 20 µM [activator, single point]"
15,O=C(C1COc2ccccc2O1)N1CCN(c2nc3c(F)cc(F)cc3s2)CC1 (configuration not stated),"inconclusive: 17.8 µM [activator, single point]"
16,CN(c1ccccc1)S(=O)(=O)c1cccc(NC(=O)c2cncc(Br)c2)c1,"inconclusive: 20 µM [activator, single point]"
17,C/C(=C\c1ccccc1)C(=O)Nc1nccs1,"inconclusive: 7.08 µM [activator, single point]"
18,O=C(Nc1nc2ccccc2s1)C1CCCN1S(=O)(=O)c1ccc(Cl)cc1 (configuration not stated),"inconclusive: 17.8 µM [activator, single point]"
19,CN=c1scc(-c2ccc(F)cc2)n1/N=C/c1ccc(O)c(O)c1,"inconclusive: 22.4 µM [activator, single point]"
20,O=[N+]([O-])c1cccc(S(=O)(=O)Nc2ccc(-c3ccc(N4CCOCC4)nn3)cc2)c1,inactive
21,O=c1[nH]nc(-c2ccc(F)cc2)cc1Cc1ccc(F)cc1,"inconclusive: 12.6 µM [activator, partial curve]"
22,Cc1ncc(N=Nc2ccccc2Cl)c(-c2ccccc2)n1,inactive
23,CN(CC(=O)Nc1cccc(F)c1)C(=O)CSc1ccccc1F,inactive
24,COc1ccc(Cl)cc1NC(=O)c1cc(-c2ccccc2O)n[nH]1,active: 6.31 µM

# Two entries drawn at random from those above, as already listed:
row,Compound,Potency
2,CC(=O)c1ccc(NC(=O)c2cccc(NC(=O)c3ccccc3)c2)cc1,inactive
5,C/C(=N\NC(=S)NCc1ccccc1)c1ccc2ccccc2c1,"inconclusive: 31.6 µM [activator, single point]"

# (list continues)

row,Compound,Potency
1,COc1ccc(C2CC(c3ccccc3OC(C)=O)=NN2C(=O)/C=C/c2ccccc2)cc1OC (configuration not stated),"inconclusive: 17.8 µM [activator, partial curve]"
2,COc1ccccc1CNC(=S)Nc1ccc2nc(N3CCN(C)CC3)cc(C)c2c1,"inconclusive: 31.6 µM [activator, single point]"
3,Cn1c(N/N=C/c2cc3ccccc3nc2Cl)nc2ccccc21,inactive
4,CCCCc1cc(=O)oc2cc(OCc3cc(OC)c(OC)c(OC)c3)c(Cl)cc12,inactive
5,Nc1nonc1N/N=C\c1ccccc1,inactive
6,C/C(=N\NC(N)=O)c1ccc(-n2ccnc2)cc1,inactive
7,COc1ccccc1N1CCN(C(=O)C2CCCN(c3ncnc4c3nc3n4CCCCC3)C2)CC1 (configuration not stated),inactive
8,CCn1c2ccccc2c2cc(NS(=O)(=O)c3ccc(C)cc3)ccc21,inactive
9,COC(=O)c1nn(-c2ccccc2)nc1-c1nn(-c2ccccc2)nc1C(=O)OC,"inconclusive: 2.51 µM [activator, full curve]"
10,O=C(C1=C(O)C(=O)N(Cc2ccco2)C1c1cccnc1)c1cc2ccccc2o1 (configuration not stated),inactive
11,O=[N+]([O-])c1ccccc1S(=O)(=O)Oc1ccc(/C=N/n2cnnc2)cc1,inactive
12,CC(=O)Nc1ccc2oc(-c3ccccc3)nc2c1,"inconclusive: 15.8 µM [activator, single point]"
13,Cc1ccc2nc(-c3ccc(N4C(=O)CC(N5CCC(C(N)=O)CC5)C4=O)cc3)sc2c1 (configuration not stated),"inconclusive: 11.2 µM [activator, partial curve]"
14,CCCCc1nc(C(N)=O)c2[nH]c(=O)n(-c3ccc(OCC)cc3)c2n1,"inconclusive: 15.8 µM [activator, partial curve]"
15,COc1cc(SC)ccc1C(=O)OCC(=O)NC1CCCCC1,inactive
16,O=C1c2ccccc2C(Nc2ccc3c(c2)OCO3)N1Cc1ccc2c(c1)OCO2 (configuration not stated),"inconclusive: 20 µM [activator, partial curve]"
17,CCCSc1ccc([C@@H]2[C@H]3C(=O)N(CC)C(=O)[C@H]3[C@]3(C(=O)OC)CCCCN23)cc1,"inconclusive: 11.2 µM [activator, single point]"
18,CC(C)C1CC(CCN2CCCCC2)(c2ccccc2)CCO1 (configuration not stated),"inconclusive: 35.5 µM [activator, single point]"
19,CCOc1ccccc1OCC(=O)Nc1cccc(S(=O)(=O)N2CCCCCC2)c1,"inconclusive: 35.5 µM [activator, partial curve, poor fit]"
20,CCN(CC)CCCNC(=S)N1CCN(c2nc(-c3ccc(F)cc3)cs2)CC1,inactive
21,CCN(CC)C(=O)CN1C(=O)/C(=C/c2ccccc2)SC1=S,inactive
22,CCCn1c(NCc2cccc(OC)c2O)nc2ccccc21,inactive
23,O=C1C=C(c2ccc(Cl)c(C(F)(F)F)c2)C[C@@H](c2ccc(F)cc2)C1,"inconclusive: 22.4 µM [activator, single point]"

# Part of the list above, as tab-separated lines:
row	Compound	Potency
2	COc1ccccc1CNC(=S)Nc1ccc2nc(N3CCN(C)CC3)cc(C)c2c1	inconclusive: 31.6 µM [activator, single point]
3	Cn1c(N/N=C/c2cc3ccccc3nc2Cl)nc2ccccc21	inactive
4	CCCCc1cc(=O)oc2cc(OCc3cc(OC)c(OC)c(OC)c3)c(Cl)cc12	inactive
5	Nc1nonc1N/N=C\c1ccccc1	inactive
